Here are results for 53 compounds from PubChem BioAssay AID1487 (National Center for Advancing Translational Sciences (NCATS), 2009).

A short description of the test: qHTS Assay for Modulators of Lamin A Splicing. The settings on record: HeLa LMNA splicing GFP/RFP minigene ratio, 48 h. Put shortly: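 Read-out is the ratio of GFP to DsRed2 object intensity, acquired by 488 nm laser-scanning cytometry on HeLa lamin A-EGFP minigene reporter cells. Compound incubation 48 hrs at 37 °C in Opti-MEM with 2% FBS; DMSO 0.5% final.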
For orientation: qHTS replaces the single test concentration by a dilution series.

Setting [1] is: measured here: RFP viability control channel.
Where [2] appears, read: measured here: GFP splicing reporter channel.

Molecules are shown by their SMILES. Several values for one entry are separate records, joined by “and”; a condition that tells them apart may be missing. Equal values may be shown once. The list shows a part of the results. The main result of the screen is listed elsewhere. These columns were measured beside it and carry no call. The list favours compounds with an active or inconclusive main result. The note in brackets gives the kind of curve behind each potency; many fits are weak.

By AC50 is commonly meant the midpoint of the concentration-response curve, whichever way the signal moves. In the case of `O=[N+]([O-])c1ccc(Oc2ccc(S(=O)(=O)N3CCCCC3)cc2)cc1`, the concentration at half-maximal activity (AC50) under setting [1] was 10 µM [rising, partial curve].
Consider `NS(=O)(=O)c1ccc(NCc2cc(Cl)ccc2OCc2ccccc2F)cc1`, for which the AC50 under setting [2] was 35.5 µM [falling, single point] and the AC50 under setting [1] was 35.5 µM [falling, single point].
On to `CCN1CCc2nc3ccccc3c(C(=O)Nc3ccc(C#N)cc3)c2C1`, for which the half-maximal activity concentration (AC50) under setting [2] was 5.01 µM [falling, full curve, poor fit].
Take `O=C(NCCC1=CCCCC1)c1ccc(CN2CCOCC2)cc1`: the AC50 under setting [1] is 25.1 µM [rising, single point].
Take `N/C(=N\OC(=O)c1ccc(Cl)c(Cl)c1)c1ccccn1`: the AC50 under setting [2] is 22.4 µM [falling, partial curve] and the AC50 under setting [1] was 22.4 µM [falling, partial curve].
With `Cc1ccc(/C=C(\NC(=O)c2ccc(C)cc2)c2nc(=S)[nH][nH]2)cc1`, the half-maximal activity concentration (AC50) reads like this: under setting [2], 22.4 µM [falling, single point]; under setting [1], 20 µM [falling, partial curve].
Take `CC(C)c1cc(C(F)(F)F)n2nc(C(=O)Nc3ccc4c(c3)OCO4)cc2n1`: the AC50 runs as follows: under setting [2], 8.91 µM [rising, partial curve]; under setting [1], 2.24 µM [rising, full curve].
Consider `CCOC(=O)c1csc(NC(=O)CSc2nnnn2-c2ccc3c(c2)OCCO3)n1`, for which, under setting [1], the AC50 was 25.1 µM [rising, single point].
Regarding `Cc1ccc(S(=O)(=O)Nc2ccc(NC(=O)Nc3cccc(C(F)(F)F)c3)cc2)cc1`, under setting [2], the AC50 was 35.5 µM [falling, single point].
For `Cc1nc(-c2ccccc2)sc1-c1ccn[nH]1`, the AC50 under setting [1] was 0.0708 µM [falling, full curve, poor fit].
For the compound `Cc1cccc(C(=O)N/N=C/c2ccccn2)c1`, the AC50 under setting [2] was 35.5 µM [rising, single point] and the AC50 under setting [1] is 25.1 µM [rising, single point].
On to `Cc1sc2nc(CSc3ccc([N+](=O)[O-])c(C(F)(F)F)c3)[nH]c(=O)c2c1C`, for which, under setting [1], the AC50 is 3.55 µM [rising, partial curve].
For the compound `CCOC(=O)C1(C)NC(c2ccc(OC)cc2OC)C2C(=O)N(CC)C(=O)C21` (centres undefined), the AC50 by setting is: under setting [2], 35.5 µM [falling, partial curve, poor fit]; under setting [1], 28.2 µM [falling, partial curve].
Turning to `CC(=O)OC[C@H]1O[C@@H](O/N=C(\C)CCN2CCCCc3nc(C)c(C)cc32)[C@H](OC(C)=O)[C@@H](OC(C)=O)[C@@H]1OC(C)=O`, the AC50 under setting [1] was 17.8 µM [rising, partial curve, poor fit].
In the case of `Cc1ccc(NC(=S)c2nc3ccccc3[nH]2)cc1`, the AC50 reads like this: under setting [2], 0.0282 µM [falling, single point]; under setting [1], 0.0355 µM [falling, single point].
Turning to `CN1CCN(c2ccc([N+](=O)[O-])c(Sc3nc4ccccc4[nH]3)c2)CC1`, the half-maximal activity concentration (AC50) under setting [1] is 12.6 µM [rising, single point].
For `Cc1cc(C)c(NC(=O)CSc2nc3ccccc3c3nc(CCn4cncc4C)nn23)c(C)c1`, the AC50 under setting [2] was 12.6 µM [falling, single point] and the AC50 under setting [1] was 10 µM [falling, partial curve].
In the case of `CCN1CCN(C(=O)c2ccc3c(c2)N(Cc2cccc(Cl)c2)C(=O)c2ccccc2S3=O)CC1` (centres undefined), the AC50 under setting [2] is 3.16 µM [rising, single point].
In the case of `Cc1cccc(C(C)C)c1NC(=O)CN(C)Cc1cccc(F)c1`, the AC50 under setting [2] was 10 µM [rising, partial curve, poor fit] and the AC50 under setting [1] was 11.2 µM [rising, single point].
Turning to `Cc1ccc(/C=C/C(=O)Nc2nc(-c3cccs3)ns2)cc1`, the half-maximal activity concentration (AC50) runs as follows: under setting [2], 17.8 µM [falling, single point]; under setting [1], 35.5 µM [falling, single point].
For `CC(C)(C)c1nnc2sc(SCC(=O)c3ccccc3)nn2c1=O`, under setting [1], the AC50 is 20 µM [rising, single point].
For `C=C(CC)C(=O)c1ccc(OCC(=O)O)c(Cl)c1Cl`, the AC50 is 1.58 µM [falling, partial curve] under setting [2]; 3.16 µM [falling, partial curve] and 3.98 µM [falling, single point] and 4.47 µM [rising, full curve, poor fit] under setting [1].
On to `CCCCNS(=O)(=O)c1ccc2nc(SCC(=O)c3ccccc3OC)[nH]c2c1`, for which, under setting [1], the AC50 is 11.2 µM [rising, partial curve].
For the compound `O=c1[nH][nH]cc1C=NCc1cccc(C(F)(F)F)c1`, the AC50 runs as follows: under setting [2], 2.51 µM [rising, single point]; under setting [1], 0.316 µM [rising, partial curve, poor fit].
`CCCOc1ccccc1NC(=O)c1c(-c2ccccc2)noc1C`: the AC50 under setting [1] is 35.5 µM [rising, partial curve, poor fit].
In the case of `O=P(COCCOCCOCP(=O)(c1ccccc1)c1ccccc1)(c1ccccc1)c1ccccc1`, the AC50 reads like this: under setting [2], 25.1 µM [falling, partial curve]; under setting [1], 20 µM [falling, partial curve, poor fit].
On to `O=C(CSCC(=O)NC1CCCC1)Nc1ccccc1`, for which the AC50 under setting [2] is 6.31 µM [falling, partial curve, poor fit] and the AC50 under setting [1] is 0.00501 µM [falling, full curve, poor fit].
As for `Cc1nonc1C(=O)N/N=C/c1ccc([N+](=O)[O-])o1`, under setting [1], the half-maximal activity concentration (AC50) was 0.891 µM [falling, full curve, poor fit].
Same read-out and setting: under `Cc1cc(C)c(C)c(OCCCCn2cnc3ccccc3c2=O)c1` stands 22.4 µM [rising, single point]; under `O=C(NCCCN1CCc2ccccc2C1)C1CCN(c2nnc(-n3cccc3)s2)CC1`, 14.1 µM [rising, single point].
Take `Cc1ccc(S(=O)(=O)Cn2nnnc2C(CC(C)C)N2CCN(C)CC2)cc1` (centres undefined): the AC50 under setting [2] was 0.158 µM [rising, full curve, poor fit].
As for `Cc1cccc(CCNC(=O)c2ccc3c(c2)nc2n3CCC(C)C2)c1` (centres undefined), the AC50 under setting [2] was 2.82 µM [rising, single point].
Take `COc1ccc(-n2c(=O)c3c4c(sc3n(Cc3cccc(F)c3)c2=O)CN(C(C)=O)CC4)c(OC)c1`: the AC50 under setting [1] is 0.141 µM [rising, full curve, poor fit].
Take `Oc1ccc(NCc2cccc(OCc3ccc(F)cc3)c2)cc1`: the half-maximal activity concentration (AC50) under setting [2] is 12.6 µM [falling, partial curve] and the AC50 under setting [1] is 11.2 µM [falling, partial curve].
As to `COc1cccc(-n2nnnc2SCC(=O)Nc2cccc(NC(C)=O)c2)c1`, the AC50 under setting [1] is 15.8 µM [rising, single point].
Still for that read-out and setting: under `O=C(c1ccco1)N1CCN(c2nc3c(F)cc(F)cc3s2)CC1` stands 35.5 µM [falling, partial curve].
On to `CC1(C)CCCN(C(=O)c2ccc3c(c2NCCO)C(=O)c2ccccc2C3=O)C1`, for which the AC50 runs as follows: under setting [2], 17.8 µM [rising, partial curve]; under setting [1], 25.1 µM [rising, single point].
Consider `CCN(CC)S(=O)(=O)c1ccc(NC2CCCc3ccccc32)nc1` (centres undefined), for which the AC50 under setting [1] is 20 µM [rising, single point].
In the case of `Nc1ccc(S(=O)(=O)NC(=O)c2ccccc2)cc1`, the AC50 under setting [2] is 1.41 µM [falling, partial curve, poor fit].
In the case of `CCC(C)NC(=O)C1(C)CCC(=O)N1Cc1ccccc1OC` (centres undefined), the AC50 under setting [1] is 3.16 µM [falling, single point].
The same measure, in the same setting: with `COCCOC(=O)C1=C(C)NC(=O)NC1c1ccc(-c2ccc(F)cc2)o1` (centres undefined) the figure was 7.94 µM [falling, partial curve, poor fit].
With `Cc1ccc(C(C[N+](=O)[O-])c2c(C)[nH]n(-c3ccccc3)c2=O)cc1` (centres undefined), under setting [2], the AC50 is 35.5 µM [rising, single point].
Turning to `CN1CCNC(=O)C1CC(=O)NCC1(c2ccccc2)CCCCC1` (centres undefined), the AC50 under setting [2] is 0.891 µM [rising, partial curve].
In the case of `CC(C)(CNC(=O)/C=C/c1ccc(F)cc1)CNC(=O)/C=C/c1ccc(F)cc1`, under setting [1], the AC50 was 12.6 µM [rising, single point].
Turning to `CCOc1ccc(NC(=S)N2CCC(C(O)(c3ccccc3)c3ccccc3)CC2)cc1`, the AC50 under setting [1] was 35.5 µM [rising, single point].
Consider `CCCC[C@@]1(C2CCCC2)Cc2cc(OCC(=O)O)c(Cl)c(Cl)c2C1=O`, for which the AC50 is 17.8 µM [falling, partial curve] under setting [2] and 12.6 µM [falling, partial curve] under setting [1].
Regarding `COC(=O)Nc1ccc(S(=O)(=O)N2CCC(Cc3ccccc3)CC2)cc1`, the AC50 under setting [2] is 1 µM [rising, partial curve, poor fit] and the AC50 under setting [1] is 25.1 µM [rising, single point].
On to `CC1=C(C(=O)OCCc2ccccc2)C(c2ccsc2)NC(=O)N1C` (centres undefined), for which the AC50 reads like this: under setting [2], 5.62 µM [rising, partial curve]; under setting [1], 12.6 µM [rising, partial curve].
Take `CCC1=NN(C(=O)Cc2ccc([N+](=O)[O-])cc2)C(O)(c2ccc(Br)cc2)C1` (centres undefined): the AC50 was 28.2 µM [rising, single point] under setting [2] and 35.5 µM [rising, single point] under setting [1].
As to `CCC(Sc1nncn1C)C(=O)Nc1nnc(-c2ccccc2Cl)s1` (centres undefined), the AC50 under setting [1] was 35.5 µM [rising, single point].
For the compound `O=C(Nc1ccc2c(c1)OCCO2)C1CCN(c2nnnn2-c2ccccc2)CC1`, the AC50 under setting [1] is 5.62 µM [rising, single point].
As for `c1ccc2c(NCCCN3CCOCC3)c3ccccc3nc2c1`, the AC50 was 11.2 µM [falling, single point] under setting [2] and 20 µM [falling, partial curve, poor fit] under setting [1].
On to `O=C(/C=C/c1cccc([N+](=O)[O-])c1)c1ccc2c(c1)OCCO2`, for which the AC50 under setting [1] was 20 µM [rising, partial curve, poor fit].
